# Literature values as cited in patent publication US20010007868A1, “COMPOSITIONS FOR INHIBITING INTESTINAL IRON ABSORPTION” (priority 1998, published 2001).
# Where two headings read alike, the source gives them in different places. For part of these data: At least one compound was matched to its structure with a doubt left. Some results were stated once for a whole list of compounds, not compound by compound.
# Key:
# LDL oxidation = details: NIDDM patients
# [1] = diabetic patients
# [2] = 10 subjects per study, identical protocol (Cutler 1989; Redmon 1993)
# [3] = tested on: intestinal absorption of iron (IAI); details: added to a test meal in doses of 5 to 100 mg
compound,measurement,setting,value
Cc1c(C)c2c(c(C)c1O)CCC(C)(COc1ccc(CC3SC(=O)NC3=O)cc1)O2 (stereo not drawn) [Troglitazone],effect on LDL oxidation,LDL oxidation,inhibits LDL oxidation
CC(=O)N(O)CCCCCNC(=O)CCC(=O)N(O)CCCCCNC(=O)CCC(=O)N(O)CCCCCN [deferoxamine],effect on endothelial dysfunction present in NIDDM,[1],improves the endothelial dysfunction
same,effect on diabetic/glucose control,[2],improved diabetic control
same,effect on diabetic/glucose control,[2]; listed as Deferoxamine,no effect
O=C(O)c1cc(O)c(O)c(O)c1 [gallic acid],decrease of IAI,[3],20 to 88%
O=C(OC[C@H]1O[C@@H](OC(=O)c2cc(O)c(O)c(OC(=O)c3cc(O)c(O)c(O)c3)c2)[C@H](OC(=O)c2cc(O)c(O)c(OC(=O)c3cc(O)c(O)c(O)c3)c2)[C@@H](OC(=O)c2cc(O)c(O)c(OC(=O)c3cc(O)c(O)c(O)c3)c2)[C@@H]1OC(=O)c1cc(O)c(O)c(OC(=O)c2cc(O)c(O)c(O)c2)c1)c1cc(O)c(O)c(OC(=O)c2cc(O)c(O)c(O)c2)c1 [tannic acid],decrease of IAI,[3],20 to 88%
